Test results from patent US20040053206A1 (DYAX, published 2004).
No constants are given. Whether binding was seen depends on the method and setting. Some entries that bind do so weakly or less than the wild type. Each block holds one binder with its values, some of them ahead of it.

Chains of the proteins cited; added tags and fusions are not shown. Residues count along the entry.
UniProt P03952, residues 20-638: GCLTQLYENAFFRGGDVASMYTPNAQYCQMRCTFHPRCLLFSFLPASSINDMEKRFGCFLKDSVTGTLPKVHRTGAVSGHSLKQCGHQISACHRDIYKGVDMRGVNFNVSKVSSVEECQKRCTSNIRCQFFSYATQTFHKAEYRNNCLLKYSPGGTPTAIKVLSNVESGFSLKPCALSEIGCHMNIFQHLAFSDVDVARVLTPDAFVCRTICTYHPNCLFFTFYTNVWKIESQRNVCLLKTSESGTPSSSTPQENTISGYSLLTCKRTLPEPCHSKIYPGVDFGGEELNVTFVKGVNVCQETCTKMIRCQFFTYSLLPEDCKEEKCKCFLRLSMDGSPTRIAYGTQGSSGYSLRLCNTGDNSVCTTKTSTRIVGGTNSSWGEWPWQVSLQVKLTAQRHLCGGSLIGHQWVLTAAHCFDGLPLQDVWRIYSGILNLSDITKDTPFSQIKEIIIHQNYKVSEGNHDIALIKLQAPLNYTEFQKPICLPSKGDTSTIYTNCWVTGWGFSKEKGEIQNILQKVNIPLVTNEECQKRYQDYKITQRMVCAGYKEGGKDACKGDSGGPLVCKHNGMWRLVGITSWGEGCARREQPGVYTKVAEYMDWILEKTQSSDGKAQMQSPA

Biological target: human plasma kallikrein (human, UniProt P03952 20-638)
Test: phage display selection

binding: binds
B1: KKII/3#7 (designed binder)
chain: MHSFCAFKADDGHCKANHQRFFFNIFTRQCEEFSYGGCGGNQNRFESLEECKKMCTRD

binding: binds
B2: KKII/3#8 (designed binder)
chain: B1 chain
